Experimental data from paper PMC9210797.
These are yes or no findings as the source states them, for the method shown. Binding seen in cells or lysates may run through a third protein. A result given as binding can be weak or reduced; the word gives no strength.

Molecular target: dynein axonemal heavy chain 9 (DNAH9) (mouse (endogenous in lung tissue))
Experiment: co-IP; proteins extracted from mouse lung tissues, 3 ug target antibody or rabbit IgG overnight at 4 C, Protein A/G magnetic beads 2 h at RT, washed thrice with PBS, immunoblot

binding: binds
B1: growth arrest-specific 8 (GAS8) (protein, UniProt Q60779 1-478)
chain: MAPKKKGKKGKAKGTAIVDGVAPEDMTKEQVEEHVARIREELDREREERNYFQLERDKIHTFWEITRRQLEEKKAELRNKDREMEEAEERHQVEIKVYKQKVKHLLYEHQNNLAEVKAEGTVVMKLAQKEHRTQEGALRKDMRVLKVELKEQELANEVVIKNLCLKQAEEITKMRNDFERQVREIEAKYDKKMKMLRDELDLRRKTEIHEVEERKNGQISTLMQRHEEAFTDIKNYYNDITLNNLALINSLKEQMEDMRKKEEHMEREMAEVTLQNRRLADPLQKAKDEMNEMQKRLGNHERDKQILVCTKARLKVAERELKDLKWEHEVLEQRFIKVQQEREELYRKFADAIQEVQQKTGFKNLLLERKLQALNAAVEKREVQFNEVLAASNLDPTALTLVSRKLEDVLESKNTTIKDLQYELARVCKAHNDLLRTYEAKLLAFGIPLDNVGFKPLETAVIGQTLGQGPAGLVGAPT
